No constants are given. Whether binding was seen depends on the method and setting. Binding seen in cells or lysates may run through a third protein. These calls come from enrichment with a bait or labelling near it, and not all partners need be listed.
B1: FANCA (protein, UniProt O15360 1-1455)
chain: MSDSWVPNSASGQDPGGRRRAWAELLAGRVKREKYNPERAQKLKESAVRLLRSHQDLNALLLEVEGPLCKKLSLSKVIDCDSSEAYANHSSSFIGSALQDQASRLGVPVGILSAGMVASSVGQICTAPAETSHPVLLTVEQRKKLSSLLEFAQYLLAHSMFSRLSFCQELWKIQSSLLLEAVWHLHVQGIVSLQELLESHPDMHAVGSWLFRNLCCLCEQMEASCQHADVARAMLSDFVQMFVLRGFQKNSDLRRTVEPEKMPQVTVDVLQRMLIFALDALAAGVQEESSTHKIVRCWFGVFSGHTLGSVISTDPLKRFFSHTLTQILTHSPVLKASDAVQMQREWSFARTHPLLTSLYRRLFVMLSAEELVGHLQEVLETQEVHWQRVLSFVSALVVCFPEAQQLLEDWVARLMAQAFESCQLDSMVTAFLVVRQAALEGPSAFLSYADWFKASFGSTRGYHGCSKKALVFLFTFLSELVPFESPRYLQVHILHPPLVPGKYRSLLTDYISLAKTRLADLKVSIENMGLYEDLSSAGDITEPHSQALQDVEKAIMVFEHTGNIPVTVMEASIFRRPYYVSHFLPALLTPRVLPKVPDSRVAFIESLKRADKIPPSLYSTYCQACSAAEEKPEDAALGVRAEPNSAEEPLGQLTAALGELRASMTDPSQRDVISAQVAVISERLRAVLGHNEDDSSVEISKIQLSINTPRLEPREHMAVDLLLTSFCQNLMAASSVAPPERQGPWAALFVRTMCGRVLPAVLTRLCQLLRHQGPSLSAPHVLGLAALAVHLGESRSALPEVDVGPPAPGAGLPVPALFDSLLTCRTRDSLFFCLKFCTAAISYSLCKFSSQSRDTLCSCLSPGLIKKFQFLMFRLFSEARQPLSEEDVASLSWRPLHLPSADWQRAALSLWTHRTFREVLKEEDVHLTYQDWLHLELEIQPEADALSDTERQDFHQWAIHEHFLPESSASGGCDGDLQAACTILVNALMDFHQSSRSYDHSENSDLVFGGRTGNEDIISRLQEMVADLELQQDLIVPLGHTPSQEHFLFEIFRRRLQALTSGWSVAASLQRQRELLMYKRILLRLPSSVLCGSSFQAEQPITARCEQFFHLVNSEMRNFCSHGGALTQDITAHFFRGLLNACLRSRDPSLMVDFILAKCQTKCPLILTSALVWWPSLEPVLLCRWRRHCQSPLPRELQKLQEGRQFASDFLSPEAASPAPNPDWLSAAALHFAIQQVREENIRKQLKKLDCEREELLVFLFFFSLMGLLSSHLTSNSTTDLPKAFHVCAAILECLEKRKISWLALFQLTESDLRLGRLLLRVAPDQHTRLLPFAFYSLLSYFHEDAAIREEAFLHVAVDMYLKLVQLFVAGDTSTVSPPAGRSLELKGQGNPVELITKARLFLLQLIPRCPKKSFSHVAELLADRGDCDPEVSAALQSRQQAAPDADLSQEPHLF
B2: FANCB (protein, UniProt Q8NB91 1-859)
chain: MTSKQAMSSNEQERLLCYNGEVLVFQLSKGNFADKEPTKTPILHVRRMVFDRGTKVFVQKSTGFFTIKEENSHLKIMCCNCVSDFRTGINLPYIVIEKNKKNNVFEYFLLILHSTNKFEMRLSFKLGYEMKDGLRVLNGPLILWRHVKAFFFISSQTGKVVSVSGNFSSIQWAGEIENLGMVLLGLKECCLSEEECTQEPSKSDYAIWNTKFCVYSLESQEVLSDIYIIPPAYSSVVTYVHICATEIIKNQLRISLIALTRKNQLISFQNGTPKNVCQLPFGDPCAVQLMDSGGGNLFFVVSFISNNACAVWKESFQVAAKWEKLSLVLIDDFIGSGTEQVLLLFKDSLNSDCLTSFKITDLGKINYSSEPSDCNEDDLFEDKQENRYLVVPPLETGLKVCFSSFRELRQHLLLKEKIISKSYKALINLVQGKDDNTSSAEEKECLVPLCGEEENSVHILDEKLSDNFQDSEQLVEKIWYRVIDDSLVVGVKTTSSLKLSLNDVTLSLLMDQAHDSRFRLLKCQNRVIKLSTNPFPAPYLMPCEIGLEAKRVTLTPDSKKEESFVCEHPSKKECVQIITAVTSLSPLLTFSKFCCTVLLQIMERESGNCPKDRYVVCGRVFLSLEDLSTGKYLLTFPKKKPIEHMEDLFALLAAFHKSCFQITSPGYALNSMKVWLLEHMKCEIIKEFPEVYFCERPGSFYGTLFTWKQRTPFEGILIIYSRNQTVMFQCLHNLIRILPINCFLKNLKSGSENFLIDNMAFTLEKELVTLSSLSSAIAKHESNFMQRCEVSKGKSSVVAAALSDRRENIHPYRKELQREKKKMLQTNLKVSGALYREITLKVAEVQLKSDFAAQKLSNL
B3: FANCG (protein, UniProt O15287 1-622)
chain: MSRQTTSVGSSCLDLWREKNDRLVRQAKVAQNSGLTLRRQQLAQDALEGLRGLLHSLQGLPAAVPVLPLELTVTCNFIILRASLAQGFTEDQAQDIQRSLERVLETQEQQGPRLEQGLRELWDSVLRASCLLPELLSALHRLVGLQAALWLSADRLGDLALLLETLNGSQSGASKDLLLLLKTWSPPAEELDAPLTLQDAQGLKDVLLTAFAYRQGLQELITGNPDKALSSLHEAASGLCPRPVLVQVYTALGSCHRKMGNPQRALLYLVAALKEGSAWGPPLLEASRLYQQLGDTTAELESLELLVEALNVPCSSKAPQFLIEVELLLPPPDLASPLHCGTQSQTKHILASRCLQTGRAGDAAEHYLDLLALLLDSSEPRFSPPPSPPGPCMPEVFLEAAVALIQAGRAQDALTLCEELLSRTSSLLPKMSRLWEDARKGTKELPYCPLWVSATHLLQGQAWVQLGAQKVAISEFSRCLELLFRATPEEKEQGAAFNCEQGCKSDAALQQLRAAALISRGLEWVASGQDTKALQDFLLSVQMCPGNRDTYFHLLQTLKRLDRRDEATALWWRLEAQTKGSHEDALWSLPLYLESYLSWIRPSDRDAFLEEFRTSLPKSCDL
B4: FANCL (protein, UniProt Q9NW38 1-375)
chain: MAVTEASLLRQCPLLLPQNRSKTVYEGFISAQGRDFHLRIVLPEDLQLKNARLLCSWQLRTILSGYHRIVQQRMQHSPDLMSFMMELKMLLEVALKNRQELYALPPPPQFYSSLIEEIGTLGWDKLVYADTCFSTIKLKAEDASGREHLITLKLKAKYPAESPDYFVDFPVPFCASWTPQSSLISIYSQFLAAIESLKAFWDVMDEIDEKTWVLEPEKPPRSATARRIALGNNVSINIEVDPRHPTMLPECFFLGADHVVKPLGIKLSRNIHLWDPENSVLQNLKDVLEIDFPARAILEKSDFTMDCGICYAYQLDGTIPDQVCDNSQCGQPFHQICLYEWLRGLLTSRQSFNIIFGECPYCSKPITLKMSGRKH

Amino acid sequences for entries named in this document (tags omitted).
UniProt Q9NPD8: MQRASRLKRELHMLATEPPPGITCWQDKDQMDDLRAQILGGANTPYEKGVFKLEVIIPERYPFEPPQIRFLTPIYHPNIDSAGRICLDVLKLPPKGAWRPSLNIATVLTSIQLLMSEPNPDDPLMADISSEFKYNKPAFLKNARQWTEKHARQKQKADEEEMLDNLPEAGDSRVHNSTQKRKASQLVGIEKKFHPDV

target: SFB-UBE2T (ubiquitin-conjugating enzyme E2 T), stable clone in HEK293T (UniProt Q9NPD8); assay: affinity purification with mass spectrometry; tandem affinity purification from HEK293T stable clones of SFB-UBE2T: NETN lysate, streptavidin beads 4 h at 4 °C, elution with 2 mg/ml biotin, S protein agarose 3 h, eluate to LC/MS/MS

binding, binds:
B1, B2, B3, B4

Source: paper PMC7862307
